Experiment [1] deals with T1, TRAF2 (TNF receptor-associated factor 2) (human (endogenous in BJELR)) (UniProt Q12933).
T1 sequence: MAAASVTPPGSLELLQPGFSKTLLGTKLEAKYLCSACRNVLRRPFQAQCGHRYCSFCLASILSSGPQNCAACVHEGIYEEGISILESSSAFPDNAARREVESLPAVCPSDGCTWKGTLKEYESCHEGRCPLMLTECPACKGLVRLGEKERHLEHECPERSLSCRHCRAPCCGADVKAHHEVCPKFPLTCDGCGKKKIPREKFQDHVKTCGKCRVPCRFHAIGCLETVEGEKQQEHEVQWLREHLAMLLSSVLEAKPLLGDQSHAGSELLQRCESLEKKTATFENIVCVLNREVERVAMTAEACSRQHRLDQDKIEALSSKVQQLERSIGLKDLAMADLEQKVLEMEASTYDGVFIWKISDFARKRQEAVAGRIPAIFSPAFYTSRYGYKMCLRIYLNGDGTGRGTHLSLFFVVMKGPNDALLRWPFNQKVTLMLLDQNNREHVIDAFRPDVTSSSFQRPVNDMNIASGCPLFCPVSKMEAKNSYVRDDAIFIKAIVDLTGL
In words: co-IP; purified plasma membrane fraction of BJELR cells (also control and DcR2 knockout cells), naive or treated with 1 ug/ml TRAIL for 30 min; antibodies to DR5, RIPK1, TRAF2 or FADD; Western blot.

By UniProt entry, the sequences of proteins in these tests, tags left out. Residues count along the entry.
UniProt O14763, residues 56-440: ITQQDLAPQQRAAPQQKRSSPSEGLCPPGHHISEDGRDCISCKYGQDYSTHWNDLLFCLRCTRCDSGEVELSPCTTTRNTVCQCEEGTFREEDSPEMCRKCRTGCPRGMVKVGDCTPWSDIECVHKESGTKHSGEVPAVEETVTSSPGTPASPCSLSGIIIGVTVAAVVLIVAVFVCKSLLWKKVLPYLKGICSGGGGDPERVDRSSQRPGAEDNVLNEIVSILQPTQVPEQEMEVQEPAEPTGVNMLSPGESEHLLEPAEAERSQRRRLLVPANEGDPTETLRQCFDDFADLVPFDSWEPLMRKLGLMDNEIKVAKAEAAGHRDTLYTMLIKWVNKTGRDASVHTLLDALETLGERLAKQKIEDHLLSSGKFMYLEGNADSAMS
UniProt O00220, residues 24-468: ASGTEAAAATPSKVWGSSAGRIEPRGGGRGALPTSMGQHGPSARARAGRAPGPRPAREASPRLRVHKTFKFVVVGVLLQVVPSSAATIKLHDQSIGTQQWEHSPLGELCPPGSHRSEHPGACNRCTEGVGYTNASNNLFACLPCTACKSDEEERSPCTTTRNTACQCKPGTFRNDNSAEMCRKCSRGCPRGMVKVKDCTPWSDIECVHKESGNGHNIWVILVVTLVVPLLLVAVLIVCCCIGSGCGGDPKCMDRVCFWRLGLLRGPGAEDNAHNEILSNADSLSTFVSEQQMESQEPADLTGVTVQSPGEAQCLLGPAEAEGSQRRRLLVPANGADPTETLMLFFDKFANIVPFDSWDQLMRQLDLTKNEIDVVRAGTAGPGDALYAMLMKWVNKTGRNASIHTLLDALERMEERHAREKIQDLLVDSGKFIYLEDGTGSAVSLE
UniProt Q13158: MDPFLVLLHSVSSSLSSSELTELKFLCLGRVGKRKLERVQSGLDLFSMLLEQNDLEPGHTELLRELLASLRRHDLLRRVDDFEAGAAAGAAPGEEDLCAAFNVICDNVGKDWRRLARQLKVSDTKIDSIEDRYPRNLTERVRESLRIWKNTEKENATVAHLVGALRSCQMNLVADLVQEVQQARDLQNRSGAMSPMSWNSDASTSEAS
UniProt Q13546: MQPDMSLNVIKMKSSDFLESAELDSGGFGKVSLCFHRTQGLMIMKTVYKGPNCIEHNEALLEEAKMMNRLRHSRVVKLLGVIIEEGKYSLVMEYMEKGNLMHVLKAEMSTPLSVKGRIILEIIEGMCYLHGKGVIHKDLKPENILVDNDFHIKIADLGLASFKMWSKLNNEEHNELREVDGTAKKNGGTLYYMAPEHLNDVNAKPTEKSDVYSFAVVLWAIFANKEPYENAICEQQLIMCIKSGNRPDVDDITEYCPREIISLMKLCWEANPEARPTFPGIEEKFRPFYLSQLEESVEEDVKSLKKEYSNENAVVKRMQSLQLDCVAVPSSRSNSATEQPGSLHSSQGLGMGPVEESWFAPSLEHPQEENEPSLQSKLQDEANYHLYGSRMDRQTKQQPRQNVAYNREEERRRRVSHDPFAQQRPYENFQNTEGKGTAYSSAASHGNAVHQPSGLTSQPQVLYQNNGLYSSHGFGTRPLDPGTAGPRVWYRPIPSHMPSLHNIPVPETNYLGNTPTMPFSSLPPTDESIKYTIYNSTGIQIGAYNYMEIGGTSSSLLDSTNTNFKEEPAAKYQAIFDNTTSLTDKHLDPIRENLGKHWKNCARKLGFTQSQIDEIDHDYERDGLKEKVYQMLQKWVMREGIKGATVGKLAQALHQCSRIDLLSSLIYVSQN
UniProt Q14790: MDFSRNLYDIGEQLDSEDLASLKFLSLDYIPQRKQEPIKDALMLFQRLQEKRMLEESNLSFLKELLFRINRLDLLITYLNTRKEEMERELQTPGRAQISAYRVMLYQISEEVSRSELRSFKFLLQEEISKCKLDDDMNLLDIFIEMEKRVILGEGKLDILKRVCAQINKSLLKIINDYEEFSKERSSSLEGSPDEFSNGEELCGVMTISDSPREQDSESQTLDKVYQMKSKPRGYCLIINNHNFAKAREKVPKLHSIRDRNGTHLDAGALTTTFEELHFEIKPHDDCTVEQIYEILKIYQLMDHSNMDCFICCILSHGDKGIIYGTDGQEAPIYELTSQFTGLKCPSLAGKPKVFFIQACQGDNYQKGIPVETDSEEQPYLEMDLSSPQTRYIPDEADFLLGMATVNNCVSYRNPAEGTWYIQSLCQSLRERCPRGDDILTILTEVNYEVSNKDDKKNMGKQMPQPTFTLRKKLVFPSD

For experiment [2], the target named is T2, Decoy Receptor 2 (human (endogenous in BJELR)) (UniProt Q9UBN6).
T2 sequence: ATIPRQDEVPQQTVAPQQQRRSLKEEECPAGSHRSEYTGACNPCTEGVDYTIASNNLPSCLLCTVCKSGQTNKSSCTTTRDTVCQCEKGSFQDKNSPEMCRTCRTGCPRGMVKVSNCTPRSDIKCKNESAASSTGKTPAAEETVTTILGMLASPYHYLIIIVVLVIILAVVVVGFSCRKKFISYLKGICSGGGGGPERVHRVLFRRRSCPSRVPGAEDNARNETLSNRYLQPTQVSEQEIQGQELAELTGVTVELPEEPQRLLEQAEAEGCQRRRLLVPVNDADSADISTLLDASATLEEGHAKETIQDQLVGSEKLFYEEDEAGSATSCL
As to the kind of experiment: co-IP; whole-cell lysates (1% Triton X-100, 150 mM NaCl, pH 7.4) of BJELR cells, naive or treated with 1 ug/ml TRAIL for 30 min; antibodies to DR5, DR4, DcR2 or caspase-8 on protein G magnetic beads, overnight at 4 °C; Western blot.

The target of experiment [3] is Death Receptor 5 (human (endogenous in BJELR)) (UniProt O14763). Described as above.
For experiment [4] the target is unchanged. In words: co-IP; purified plasma membrane fraction of BJELR cells (also control and DcR2 knockout cells), naive or treated with 1 ug/ml TRAIL for 30 min; antibodies to DR5, RIPK1, TRAF2 or FADD; Western blot.

No constants are given. Whether binding was seen depends on the method and setting. In cells and extracts the contact can be indirect. Some entries that bind do so weakly or less than the wild type.

As for “Death Receptor 4 (from UniProt O00220 24-468)”, the binding result in experiment [1] is on record as “binds”.

For the substance “FADD (Fas-associated protein with death domain) (from UniProt Q13158 1-208)”, the binding entry in experiment [2], in experiment [3] and in experiment [4] was “binds” each time.

As for “RIPK1 (receptor-interacting serine/threonine-protein kinase 1) (from UniProt Q13546 1-671)”, the binding result in experiment [3] and in experiment [4] was “binds” throughout.

On to “caspase-8 (from UniProt Q14790 1-479) (enzyme)”, for which the binding result in experiment [2] is recorded as “binds”.

(Values after paper PMC5596601.)
